Experimental findings from patent US6416987B1, “Mutants of thymidylate synthase and uses thereof” (Sloan Kettering Institute for Cancer Research, priority 1997, dated 2002) are described below.

In this test the test system is TS-negative FSthy21 cells transfected with I108A mutant human TS cDNA. The test can be described thus: Growth inhibition assay (alamar Blue), I108A transfectants. Conditions: I108A transfectants vs wild-type transfectants.

Some entries of the source have several records that differ or are many. The other results are left out here. The source may hold further records. The values listed for one entry differ, and nothing given here explains why; dose, time, organism, isomer or construct need not be as stated for each record.

Consider `Cc1ccc2nc(N)[nH]c(=O)c2c1Sc1ccncc1`, for which the “resistance, IC50 values greater than wild-type transfectants” value was ≥ 76 fold and at least 78 fold and ≥ 78 fold.
